These results are taken from article PMC7819943, “Rice protein-binding microarrays: a tool to detect cis-acting elements near promoter regions in rice”.

Sequences of proteins named here, by UniProt entry; tags and fusion partners are left off.
UniProt Q0JBA9, entry or part of it: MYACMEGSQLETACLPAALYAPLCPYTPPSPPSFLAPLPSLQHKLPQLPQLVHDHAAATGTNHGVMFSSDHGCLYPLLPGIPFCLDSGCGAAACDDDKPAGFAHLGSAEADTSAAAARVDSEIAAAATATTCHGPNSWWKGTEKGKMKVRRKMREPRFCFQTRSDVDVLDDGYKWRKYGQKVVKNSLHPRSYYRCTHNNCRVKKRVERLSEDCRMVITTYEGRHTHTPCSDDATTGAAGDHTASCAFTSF

This is one part of the list.

The target in the assay is OsWRKY34 (Oryza sativa, UniProt Q0JBA9 1-250). Nature of the assay: protein-binding microarray (RPBM); PBS, 2% BSA, 51.3 ng/ul salmon testes DNA, 50 uM zinc acetate, 200 nM TF, 25 C, 1 h; high values mean tight binding. Conditions: protein: recombinant; tags: N-terminal polyhistidine and DsRed monomer fusion (pET32a); label: CyDye5-dUTP incorporated in the synthesized complementary strand; 3' TTTTT single-stranded linker to array surface; dsDNA, one strand shown. The procedure, abridged:
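Transcription factors were made in E. coli BL21-CodonPlus as N-terminal fusions to a polyhistidine tag and DsRed, then purified on Ni–NTA. After primer extension with Cy5-dUTP and blocking with 2% BSA, a custom Agilent array was exposed for 1 h at 25 °C to 200 nM protein in PBS, 2% BSA, salmon testes DNA and 50 µM zinc acetate. Washed arrays were scanned on an Axon 4000B, and the binding signal is per-feature fluorescence intensity in arbitrary units.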
“TGTACAGCTCACTCATCACTGATCCGTCCCATGTGGTTCACGGAGTCACCTAGTGCAG”: the binding signal is 8690 fluorescence intensity (a.u.).
The value for “TTTCCCTTTTGAGTTCTTCCGTTTCGACTAGTTTTTCCAACGGAGTCACCTAGTGCAG” was 10200 fluorescence intensity (a.u.); that for “AATGCCGTCCGCCCACGTGGCCAACCCGCGACCACCCGCGCGGAGTCACCTAGTGCAG” was 9120 fluorescence intensity (a.u.).
As to “GTCAAACGACTATTCCTGTGTTTTGCATCCATCTGTTTTACGGAGTCACCTAGTGCAG”, the binding signal was 9520 fluorescence intensity (a.u.).
Turning to “CCGCTGCCGCTCTCCATCCCGCCCTCGGTCGCCGACGATCCGGAGTCACCTAGTGCAG”, the binding signal was 11600 fluorescence intensity (a.u.).
To “ACTAACCATGGTGCATTGACTTTTGCTTAATATTATTTCACGGAGTCACCTAGTGCAG” belongs 10200 fluorescence intensity (a.u.); to “TATTATAAGTTGTTTTACTTTTTTATTAGTCATTTTTTATCGGAGTCACCTAGTGCAG”, 10100 fluorescence intensity (a.u.).
The value for “CTGTAGGTACTCGTACTACTCCAATTCTTTCTCTCGCCTACGGAGTCACCTAGTGCAG” was 8070 fluorescence intensity (a.u.); that for “GCAAGTTTTTTGGTCACTCAAGCAACCTTCGCTTGCACTCCGGAGTCACCTAGTGCAG” was 8900 fluorescence intensity (a.u.).
Regarding “GCTTGACACCGATCCATTTGACGAGCTCGCATTTCCTTCACGGAGTCACCTAGTGCAG”, the binding signal is 11400 fluorescence intensity (a.u.).
To “CGGTGTTCTACTGGCGACTGGCCTCCTCGAGTTCTTGATCCGGAGTCACCTAGTGCAG” belongs 10400 fluorescence intensity (a.u.); to “CATTCCATCTCTCTCTCTCTCGAATCTTGATCTCTCTCTTCGGAGTCACCTAGTGCAG”, 8570 fluorescence intensity (a.u.).
To “TTCTGAAAAAAAATCGTACTTATGGAAGAGTGCCACAAATCGGAGTCACCTAGTGCAG” belongs 8380 fluorescence intensity (a.u.); to “AGTCCATGCACCAAACCCCATCCCAGCCGTCCATCTCCTACGGAGTCACCTAGTGCAG”, 8920 fluorescence intensity (a.u.); to “GCTCACATTCATATACATGTTAATGAATCTAGACACACATCGGAGTCACCTAGTGCAG”, 8520 fluorescence intensity (a.u.).
For “TACAGGGCAGCAGCCGCGGCCGTTCATCATCGTGTTGACCCGGAGTCACCTAGTGCAG”, the binding signal was 10200 fluorescence intensity (a.u.).
Take “AAAGTTGCATCCGACCTATTCATGCCATTTCGTCCCTCCACGGAGTCACCTAGTGCAG”: the binding signal is 8230 fluorescence intensity (a.u.).
As for “GTAGCTCTTTTTTTTTGTTTTGGATATACATATTTAGTTACGGAGTCACCTAGTGCAG”, the binding signal was 11600 fluorescence intensity (a.u.).
As to “TGACGATGCCTCTGAACTGTGCTGCTCGACTACGTCTTCCCGGAGTCACCTAGTGCAG”, the binding signal is 8160 fluorescence intensity (a.u.).
Take “CATCTTTTACAGTTCCATCTCTACTAATCACACCTCATCTCGGAGTCACCTAGTGCAG”: the binding signal is 10900 fluorescence intensity (a.u.).
“TTTTAATGTATGACGCTGTTGACTTTTTATCCAACGTTTGCGGAGTCACCTAGTGCAG”: the binding signal is 16400 fluorescence intensity (a.u.).
To “GATTGTTCGCTCCTTTCTTGGCGGCTGGTATTCACATCGACGGAGTCACCTAGTGCAG” belongs 9480 fluorescence intensity (a.u.).
As for “GAATGGTCTCTTTAATTTTATTGCTGATGCTGATTAATCTCGGAGTCACCTAGTGCAG”, the binding signal was 8970 fluorescence intensity (a.u.).
With “TCTACCCTCAACCAACCTGCTTCTCCATCAGTTAATTATGCGGAGTCACCTAGTGCAG”, the binding signal was 11500 fluorescence intensity (a.u.).
To “AGCTTGGTTTCTGGGTTGGGTTGGGTTTGGTTGCGTTGCGCGGAGTCACCTAGTGCAG” belongs 22700 fluorescence intensity (a.u.); to “CAGCTTTATCTTTTCGTGTATGTTTATACTTATCAGTAAACGGAGTCACCTAGTGCAG”, 9130 fluorescence intensity (a.u.).
The value for “CTCCAGCTTCAACTCTCCTATAGCTAGAGTCCAACCAAATCGGAGTCACCTAGTGCAG” was 8120 fluorescence intensity (a.u.).
Turning to “ACAAGGCGACAACCCTTCTCAGCGCTCCCTGTCCTAGTCACGGAGTCACCTAGTGCAG”, the binding signal was 8810 fluorescence intensity (a.u.).
“TTTTTTCTCTTTTTTTTCTTTCTTTTTCCTCTCTTCTTTTCGGAGTCACCTAGTGCAG”: the binding signal is 10500 fluorescence intensity (a.u.).
Consider “AGTTTTAAGGAGGGAGTTGATGGTGGGATTGGTCATGGGACGGAGTCACCTAGTGCAG”, for which the binding signal was 8620 fluorescence intensity (a.u.).
Take “CGATCTCACCGCCGCATGCGCCATCTGAAGCCGTGCGCCCCGGAGTCACCTAGTGCAG”: the binding signal is 8150 fluorescence intensity (a.u.).
As for “CCGTCTCCGCCAATCGCCGCGGCGAGGACCAGTGGTCCCTCGGAGTCACCTAGTGCAG”, the binding signal was 9610 fluorescence intensity (a.u.).
In the case of “CATCGACTACCTGCCATTCTTCTACTCCAGGGTCTTCTCGCGGAGTCACCTAGTGCAG”, the binding signal was 9510 fluorescence intensity (a.u.).
In the case of “TTCGGTTTGTCGTGATTTCATGCATCTCATGAGGTCCCAACGGAGTCACCTAGTGCAG”, the binding signal is 8040 fluorescence intensity (a.u.).
Turning to “CTCTCCTGCCAAATACCACTCCATACCCGCGAAAAACGCTCGGAGTCACCTAGTGCAG”, the binding signal is 8370 fluorescence intensity (a.u.).
For “ACTTCCCTTGCAGATTGTCCATTTTTTTTCTGTTCGGAATCGGAGTCACCTAGTGCAG”, the binding signal was 10800 fluorescence intensity (a.u.).
For the sequence “TGTTTTTCATGTTGCATCTTTGGTAAAATAAATTTTGTAACGGAGTCACCTAGTGCAG”, the binding signal is 8640 fluorescence intensity (a.u.).
The value for “CCACGCCGCCCGCCACCGCCGCTCGCCATCGCCACCGTCGCGGAGTCACCTAGTGCAG” was 9580 fluorescence intensity (a.u.); that for “TGGTGCTCGTCCGGTCCAAATGTTGTCTGCCTTAGTGCCTCGGAGTCACCTAGTGCAG” was 8660 fluorescence intensity (a.u.); that for “CCGTAATCGGTTAGCCCGCAAACGAATCCCAGCCCAATTACGGAGTCACCTAGTGCAG” was 8630 fluorescence intensity (a.u.).
For the sequence “GGGGATTTTTTTTTCGGATCCAGAACGATCAGAGAGGGAGCGGAGTCACCTAGTGCAG”, the binding signal is 9300 fluorescence intensity (a.u.).
On to “TTTTGCAATCATCTGTTTTACAATTGTATTCCTGTCAGAACGGAGTCACCTAGTGCAG”, for which the binding signal is 9300 fluorescence intensity (a.u.).
In the case of “CTTCCACAAAGATTCGAATTTTCTTTTCGGTTTGGATCATCGGAGTCACCTAGTGCAG”, the binding signal is 9020 fluorescence intensity (a.u.).
Regarding “AATTCTCCAAGCCCTGTGTTGCATCTGCATGCCATCTCATCGGAGTCACCTAGTGCAG”, the binding signal is 10900 fluorescence intensity (a.u.).
Take “GTTCACTCTCCGACGACTTAATTGTGTGCGTGTTGTATTTCGGAGTCACCTAGTGCAG”: the binding signal was 12400 fluorescence intensity (a.u.).
To “AGGGACTCACCCTCTCCTCGCCTCGCCTCGCCTCGCTAACCGGAGTCACCTAGTGCAG” belongs 9380 fluorescence intensity (a.u.); to “CGAGTGGGTTTAAACTCGAGTTGTTTTTTTGTTCGTTAATCGGAGTCACCTAGTGCAG”, 9680 fluorescence intensity (a.u.); to “CTCCACTCTCCGCCGCCGCCGCGCCAACCTCCGAGCTCTGCGGAGTCACCTAGTGCAG”, 8820 fluorescence intensity (a.u.).
To “AACTAATTTCTTCTCTTTTTTTTGTCCTTTTTCTTTACAACGGAGTCACCTAGTGCAG” belongs 12300 fluorescence intensity (a.u.).
“TGTGGTGGCGAGCGGCACGGAGGCGGGGCGGTGGAGGGAGCGGAGTCACCTAGTGCAG”: the binding signal is 9670 fluorescence intensity (a.u.).
On to “ATCTCTGCCTTTTCATATTAATATTGATCTTGCTGCATTTCGGAGTCACCTAGTGCAG”, for which the binding signal was 10200 fluorescence intensity (a.u.).
In the case of “GCAGAACTTTCACTGAATCAACAGAATTTCGGTCCTACCTCGGAGTCACCTAGTGCAG”, the binding signal is 8120 fluorescence intensity (a.u.).
Take “CACGCTTATTTCTTCTCTCCTACCTCCGCTTCACCTTCACCGGAGTCACCTAGTGCAG”: the binding signal is 8800 fluorescence intensity (a.u.).
On to “ATTACTTGTTTCATCCATATTGGGTCACTGTAATTTTCCTCGGAGTCACCTAGTGCAG”, for which the binding signal is 10800 fluorescence intensity (a.u.).
